No constants are given. Whether binding was seen depends on the method and setting. In cells and extracts the contact can be indirect. These calls come from enrichment with a bait or labelling near it, and not all partners need be listed. Sequences can lack the tags named with a protein.
Columns and labels:
[1] = target: T1, FKBP4 F130Y-BioID2-HA (human) (UniProt Q02790); assay: proximity labelling; BioID and BioID2: FKBP4 (WT or F130Y) fused to BirA(R118G)-HA or BioID2-HA in HEK293T cells, biotin in the medium; RIPA lysate (5000 ug protein), streptavidin beads, SDS-PAGE, LC-MS/MS with Mascot scores compared with vector control or WT
T1 sequence: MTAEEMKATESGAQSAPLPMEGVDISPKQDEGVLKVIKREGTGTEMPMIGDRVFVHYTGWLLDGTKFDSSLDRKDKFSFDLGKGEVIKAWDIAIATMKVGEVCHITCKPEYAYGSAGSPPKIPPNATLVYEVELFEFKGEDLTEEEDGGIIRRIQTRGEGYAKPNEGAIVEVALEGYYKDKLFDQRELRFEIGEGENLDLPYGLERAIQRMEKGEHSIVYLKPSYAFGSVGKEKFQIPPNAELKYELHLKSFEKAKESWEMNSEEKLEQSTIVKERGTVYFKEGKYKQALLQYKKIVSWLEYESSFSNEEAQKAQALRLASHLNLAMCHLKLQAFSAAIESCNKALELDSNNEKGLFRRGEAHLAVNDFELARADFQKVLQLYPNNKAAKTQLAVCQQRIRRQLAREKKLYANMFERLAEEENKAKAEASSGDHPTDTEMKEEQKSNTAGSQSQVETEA

Protein sequences, listed by entry. Tags and fused reporters are not part of them.
UniProt Q9Y490: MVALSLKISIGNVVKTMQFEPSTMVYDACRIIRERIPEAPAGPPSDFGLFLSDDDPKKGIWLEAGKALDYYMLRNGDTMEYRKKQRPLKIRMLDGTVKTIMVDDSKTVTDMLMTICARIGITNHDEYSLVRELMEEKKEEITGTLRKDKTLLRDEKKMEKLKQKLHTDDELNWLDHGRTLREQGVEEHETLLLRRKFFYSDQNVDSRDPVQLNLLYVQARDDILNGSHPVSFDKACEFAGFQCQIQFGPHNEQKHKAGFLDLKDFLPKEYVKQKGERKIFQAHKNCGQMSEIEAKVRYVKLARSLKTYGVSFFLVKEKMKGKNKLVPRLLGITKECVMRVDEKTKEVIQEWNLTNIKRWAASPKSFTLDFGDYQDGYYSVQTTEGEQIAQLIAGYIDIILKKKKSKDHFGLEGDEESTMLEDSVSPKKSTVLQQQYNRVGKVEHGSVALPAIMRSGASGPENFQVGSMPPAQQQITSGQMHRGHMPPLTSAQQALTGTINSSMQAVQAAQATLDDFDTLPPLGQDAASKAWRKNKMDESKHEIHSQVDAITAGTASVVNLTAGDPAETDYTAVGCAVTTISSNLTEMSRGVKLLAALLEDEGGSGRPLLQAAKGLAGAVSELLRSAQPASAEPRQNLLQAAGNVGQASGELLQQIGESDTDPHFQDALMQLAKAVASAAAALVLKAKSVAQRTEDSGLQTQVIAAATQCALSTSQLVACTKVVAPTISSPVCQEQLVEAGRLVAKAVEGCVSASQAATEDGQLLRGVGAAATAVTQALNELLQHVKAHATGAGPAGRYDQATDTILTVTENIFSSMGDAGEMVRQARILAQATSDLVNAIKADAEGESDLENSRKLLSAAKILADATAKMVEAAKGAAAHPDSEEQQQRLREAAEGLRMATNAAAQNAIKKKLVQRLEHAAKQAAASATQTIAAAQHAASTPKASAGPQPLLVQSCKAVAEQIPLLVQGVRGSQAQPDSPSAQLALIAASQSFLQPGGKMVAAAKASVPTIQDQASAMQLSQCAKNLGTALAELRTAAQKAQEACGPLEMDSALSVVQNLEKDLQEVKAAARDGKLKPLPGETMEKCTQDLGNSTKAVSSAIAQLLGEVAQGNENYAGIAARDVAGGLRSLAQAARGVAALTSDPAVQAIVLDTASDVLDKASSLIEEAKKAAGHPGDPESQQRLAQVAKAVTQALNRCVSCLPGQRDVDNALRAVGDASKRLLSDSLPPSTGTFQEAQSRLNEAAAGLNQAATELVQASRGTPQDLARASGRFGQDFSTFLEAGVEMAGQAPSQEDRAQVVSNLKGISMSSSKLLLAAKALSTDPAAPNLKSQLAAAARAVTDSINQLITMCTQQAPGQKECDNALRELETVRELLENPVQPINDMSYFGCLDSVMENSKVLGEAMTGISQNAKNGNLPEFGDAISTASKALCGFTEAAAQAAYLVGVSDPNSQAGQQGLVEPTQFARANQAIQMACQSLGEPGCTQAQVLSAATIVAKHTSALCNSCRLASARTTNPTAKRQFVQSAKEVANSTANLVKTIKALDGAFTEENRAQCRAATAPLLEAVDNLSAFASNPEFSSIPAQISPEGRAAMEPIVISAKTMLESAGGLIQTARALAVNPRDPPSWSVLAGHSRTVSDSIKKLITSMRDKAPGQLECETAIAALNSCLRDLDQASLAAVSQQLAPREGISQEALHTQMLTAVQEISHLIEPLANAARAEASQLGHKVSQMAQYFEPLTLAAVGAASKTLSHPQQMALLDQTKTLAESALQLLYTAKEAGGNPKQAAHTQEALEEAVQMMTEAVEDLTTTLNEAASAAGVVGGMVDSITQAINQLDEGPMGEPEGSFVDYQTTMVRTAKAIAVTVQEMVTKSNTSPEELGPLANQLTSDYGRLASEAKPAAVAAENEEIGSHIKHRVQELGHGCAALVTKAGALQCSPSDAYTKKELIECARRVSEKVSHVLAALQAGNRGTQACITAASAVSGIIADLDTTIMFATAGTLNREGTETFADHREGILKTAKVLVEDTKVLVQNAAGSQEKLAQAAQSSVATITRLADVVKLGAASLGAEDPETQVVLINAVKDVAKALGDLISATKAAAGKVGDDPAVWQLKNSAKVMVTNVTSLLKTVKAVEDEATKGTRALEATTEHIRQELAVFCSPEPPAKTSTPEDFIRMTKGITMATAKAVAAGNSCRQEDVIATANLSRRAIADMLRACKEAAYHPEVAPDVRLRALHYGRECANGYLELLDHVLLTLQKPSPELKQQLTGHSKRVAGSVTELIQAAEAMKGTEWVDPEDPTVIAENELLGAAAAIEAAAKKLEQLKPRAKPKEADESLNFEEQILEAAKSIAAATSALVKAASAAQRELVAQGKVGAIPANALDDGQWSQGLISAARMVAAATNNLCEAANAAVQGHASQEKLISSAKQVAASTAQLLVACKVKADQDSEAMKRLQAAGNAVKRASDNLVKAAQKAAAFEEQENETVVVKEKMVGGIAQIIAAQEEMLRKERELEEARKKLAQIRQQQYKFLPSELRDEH
UniProt O00571: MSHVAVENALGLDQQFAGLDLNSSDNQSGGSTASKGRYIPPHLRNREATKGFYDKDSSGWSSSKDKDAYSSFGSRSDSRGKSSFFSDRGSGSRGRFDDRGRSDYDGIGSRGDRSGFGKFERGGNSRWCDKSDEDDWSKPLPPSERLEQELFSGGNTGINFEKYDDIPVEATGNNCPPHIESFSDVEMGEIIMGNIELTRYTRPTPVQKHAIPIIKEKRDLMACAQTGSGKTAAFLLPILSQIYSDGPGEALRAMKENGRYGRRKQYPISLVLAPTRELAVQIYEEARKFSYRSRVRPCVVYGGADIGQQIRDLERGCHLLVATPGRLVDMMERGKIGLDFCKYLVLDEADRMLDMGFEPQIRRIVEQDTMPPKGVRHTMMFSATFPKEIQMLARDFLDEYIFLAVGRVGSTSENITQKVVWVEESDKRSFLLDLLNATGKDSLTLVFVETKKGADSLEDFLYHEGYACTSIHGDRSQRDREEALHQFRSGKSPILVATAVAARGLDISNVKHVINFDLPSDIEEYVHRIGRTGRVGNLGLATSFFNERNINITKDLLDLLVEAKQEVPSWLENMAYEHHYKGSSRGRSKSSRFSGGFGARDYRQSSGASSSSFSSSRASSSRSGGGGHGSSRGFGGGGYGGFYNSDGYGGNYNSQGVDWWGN
UniProt P21333: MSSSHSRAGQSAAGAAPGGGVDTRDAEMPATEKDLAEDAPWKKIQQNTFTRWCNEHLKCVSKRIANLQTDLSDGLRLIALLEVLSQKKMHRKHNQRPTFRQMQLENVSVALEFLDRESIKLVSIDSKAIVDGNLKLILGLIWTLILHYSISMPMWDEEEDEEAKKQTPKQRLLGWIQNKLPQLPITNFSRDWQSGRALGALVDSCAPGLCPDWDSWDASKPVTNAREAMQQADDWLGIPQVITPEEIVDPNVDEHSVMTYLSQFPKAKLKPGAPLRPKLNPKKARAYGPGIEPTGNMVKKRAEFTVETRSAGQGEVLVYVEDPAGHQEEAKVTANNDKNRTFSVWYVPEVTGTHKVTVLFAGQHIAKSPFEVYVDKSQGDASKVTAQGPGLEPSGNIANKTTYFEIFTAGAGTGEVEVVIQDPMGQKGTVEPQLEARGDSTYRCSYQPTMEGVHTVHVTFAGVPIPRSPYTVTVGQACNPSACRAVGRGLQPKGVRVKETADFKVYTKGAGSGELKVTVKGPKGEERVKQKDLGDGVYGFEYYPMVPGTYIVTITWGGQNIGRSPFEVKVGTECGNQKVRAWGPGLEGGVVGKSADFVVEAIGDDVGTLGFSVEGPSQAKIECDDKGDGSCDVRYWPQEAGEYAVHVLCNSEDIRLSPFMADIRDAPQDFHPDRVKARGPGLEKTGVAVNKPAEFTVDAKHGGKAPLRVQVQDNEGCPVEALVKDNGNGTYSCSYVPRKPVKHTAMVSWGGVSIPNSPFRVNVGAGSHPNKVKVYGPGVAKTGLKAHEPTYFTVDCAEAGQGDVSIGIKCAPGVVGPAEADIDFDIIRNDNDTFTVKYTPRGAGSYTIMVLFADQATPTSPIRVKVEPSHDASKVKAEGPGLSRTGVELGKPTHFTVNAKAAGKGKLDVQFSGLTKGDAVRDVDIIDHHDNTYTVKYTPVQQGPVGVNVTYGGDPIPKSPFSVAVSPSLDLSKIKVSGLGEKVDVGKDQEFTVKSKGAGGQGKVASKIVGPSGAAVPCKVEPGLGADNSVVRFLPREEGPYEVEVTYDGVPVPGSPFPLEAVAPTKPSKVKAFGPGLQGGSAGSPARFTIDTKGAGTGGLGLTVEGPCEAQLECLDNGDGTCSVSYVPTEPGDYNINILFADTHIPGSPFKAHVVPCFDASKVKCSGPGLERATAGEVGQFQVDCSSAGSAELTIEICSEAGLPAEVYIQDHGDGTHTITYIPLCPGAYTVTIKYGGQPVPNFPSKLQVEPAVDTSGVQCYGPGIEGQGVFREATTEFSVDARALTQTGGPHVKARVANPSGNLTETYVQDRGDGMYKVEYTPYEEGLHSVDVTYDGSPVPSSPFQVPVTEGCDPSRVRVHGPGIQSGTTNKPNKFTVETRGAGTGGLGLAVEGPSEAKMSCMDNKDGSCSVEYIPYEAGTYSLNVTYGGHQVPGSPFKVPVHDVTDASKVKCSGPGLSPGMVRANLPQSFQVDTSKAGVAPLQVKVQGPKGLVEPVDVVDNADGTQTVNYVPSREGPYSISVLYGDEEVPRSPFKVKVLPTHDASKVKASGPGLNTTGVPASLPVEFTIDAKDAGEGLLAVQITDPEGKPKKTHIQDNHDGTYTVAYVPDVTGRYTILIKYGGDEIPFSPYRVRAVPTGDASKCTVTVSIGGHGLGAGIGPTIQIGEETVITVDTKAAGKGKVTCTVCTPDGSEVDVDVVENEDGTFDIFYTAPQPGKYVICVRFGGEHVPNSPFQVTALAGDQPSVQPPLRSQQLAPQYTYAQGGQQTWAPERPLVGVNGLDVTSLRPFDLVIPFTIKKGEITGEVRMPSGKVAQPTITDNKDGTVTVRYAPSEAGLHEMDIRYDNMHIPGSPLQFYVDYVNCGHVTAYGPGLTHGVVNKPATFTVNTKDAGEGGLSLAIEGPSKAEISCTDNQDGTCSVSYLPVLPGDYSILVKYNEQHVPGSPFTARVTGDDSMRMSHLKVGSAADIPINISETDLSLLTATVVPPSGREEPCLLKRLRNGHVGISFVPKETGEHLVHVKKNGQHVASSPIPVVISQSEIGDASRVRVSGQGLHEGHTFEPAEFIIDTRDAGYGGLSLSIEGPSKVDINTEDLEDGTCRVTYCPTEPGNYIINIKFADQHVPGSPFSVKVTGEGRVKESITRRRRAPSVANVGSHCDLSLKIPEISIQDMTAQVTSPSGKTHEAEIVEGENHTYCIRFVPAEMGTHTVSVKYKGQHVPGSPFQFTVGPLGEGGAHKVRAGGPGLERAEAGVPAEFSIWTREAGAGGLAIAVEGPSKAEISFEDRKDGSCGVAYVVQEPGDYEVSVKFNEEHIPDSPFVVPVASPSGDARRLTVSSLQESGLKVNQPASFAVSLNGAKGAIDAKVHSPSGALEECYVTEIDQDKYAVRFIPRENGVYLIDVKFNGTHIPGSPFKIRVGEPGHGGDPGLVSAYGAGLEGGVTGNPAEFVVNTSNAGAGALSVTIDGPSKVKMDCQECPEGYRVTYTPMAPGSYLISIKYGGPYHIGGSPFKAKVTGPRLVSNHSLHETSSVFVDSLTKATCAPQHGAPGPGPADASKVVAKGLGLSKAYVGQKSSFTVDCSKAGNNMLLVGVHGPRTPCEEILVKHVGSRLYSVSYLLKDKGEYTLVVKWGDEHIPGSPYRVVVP

[2] = target: T2, FKBP4 F130Y-BirA (R118G)-HA (human) (UniProt Q02790); assay: as above
T2 sequence: T1 sequence

Row | Substance | binding [1] | binding [2]
1 | TALIN-1 (from UniProt Q9Y490 1-2541) | binds | binds
2 | DDX3X (from UniProt O00571 1-662) |  | binds
3 | Filamin-A (FLNA) (from UniProt P21333 1-2647) | binds | binds

Source: publication PMC12718141
